Record: PubChem BioAssay AID652243 (Drosophila RNAi Screening Center, 2013)
In all, the deposit lists about 24,000 reagents; below is an unselected part of those with a known target gene and a result. Over the whole deposit, 246 (1%) got an active call. 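Plates not normalised; calls are printed but the firefly/Renilla ratio behind them is not deposited; fold cut for lowering reported inconsistently.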 The raw values are shown without normalisation. Not given: the amount of reagent.

Purpose: 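Fly genes required for human androgen receptor driven transcription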 (primary screen)
System: Drosophila S2R+ cells
Reagents: long dsRNA against Drosophila genes
Time to read-out: 72 h (48 h, then 24 h hormone)
Challenge: synthetic androgen R1881 at 10 nM for 24 h
Detection: 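Per-well raw luminescence of the androgen-driven firefly reporter and of the Renilla control, two replicates each, without normalisation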
Direction: firefly reporter light: higher = more light from androgen-responsive reporter; Renilla control light: higher = more constitutive control signal (cell number, transfection)
Hit rule: 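Across duplicate plates, a knock-down whose log firefly/Renilla ratio shifted a set fold down or up from the GFP/LacZ control mean was a hit; the downward cut appears as both 1.5 and 3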
Calls: active = hit: reporter lowered or raised; inactive = no hit

no.	Target gene	amplicon	firefly reporter light, replicate 1	firefly reporter light, replicate 2	Renilla control light, replicate 1	Renilla control light, replicate 2	call
1	BomT3 (GeneID 42598)	DRSC15871	2.71e5	2.80e5	2.40e6	3.44e6	inactive
2	BomT3 (GeneID 42598)	DRSC25578	6.68e5	7.57e5	6.58e5	7.26e5	inactive
3	CG34043 (GeneID 3885606)	DRSC37773	1.22e6	1.04e6	2.65e6	2.79e6	inactive
4	CG2889 (GeneID 31977)	DRSC18236	6.01e5	6.76e5	3.23e6	3.14e6	inactive
5	Spn28B (GeneID 34035)	DRSC02982	4.00e5	5.29e5	2.50e6	2.11e6	inactive
6	Zip48C (GeneID 36273)	DRSC06314	1.28e6	1.62e6	1.11e6	1.64e6	inactive
7	CG4679 (GeneID 36466)	DRSC06880	2.21e5	3.13e5	1.47e6	1.47e6	inactive
8	CG4679 (GeneID 36466)	DRSC28357	3.30e5	5.59e5	7.97e5	1.00e6	inactive
9	Coq5 (GeneID 32272)	DRSC19849	2.63e5	2.91e5	2.38e6	3.42e6	inactive
10	Coq5 (GeneID 32272)	DRSC21371	7.86e5	9.46e5	9.39e5	1.61e6	inactive
11	Coq5 (GeneID 32272)	DRSC29685	7.96e5	7.15e5	1.03e6	9.45e5	inactive
12	CG32681 (GeneID 318151)	DRSC17646	1.17e6	8.87e5	1.95e6	1.87e6	inactive
13	CG12123 (GeneID 31777)	DRSC17818	1.11e5	91939	4.67e5	7.29e5	inactive
14	CG17292 (GeneID 34152)	DRSC02594	6.34e5	5.77e5	2.23e6	1.89e6	inactive
15	CG17292 (GeneID 34152)	DRSC27746	1.97e5	1.81e5	6.01e5	8.99e5	inactive
16	CG12111 (GeneID 31796)	DRSC17808	2.83e5	3.25e5	3.53e6	3.12e6	inactive
17	CG12111 (GeneID 31796)	DRSC26511	3.59e5	1.78e5	5.51e5	3.33e5	inactive
18	CDK2AP1 (GeneID 32050)	DRSC19800	69257	1.06e5	6.23e5	6.69e5	inactive
19	CDK2AP1 (GeneID 32050)	DRSC25637	6.90e5	5.65e5	9.45e5	8.09e5	inactive
20	CG5265 (GeneID 42074)	DRSC15756	1.38e5	1.61e5	2.53e6	2.28e6	inactive
21	morgue (GeneID 33648)	DRSC00264	1.39e6	1.94e6	1.78e6	1.91e6	inactive
22	nocte (GeneID 31976)	DRSC18123	61947	1.07e5	6.02e5	6.11e5	inactive
23	nocte (GeneID 31976)	DRSC28453	3.09e5	4.84e5	4.43e5	7.95e5	inactive
24	CG15167 (GeneID 35134)	DRSC02468	1.56e5	2.16e5	1.74e6	1.90e6	inactive
25	CG10418 (GeneID 39408)	DRSC09720	2.37e5	2.35e5	2.92e6	2.87e6	inactive
26	RhoGEF2 (GeneID 36915)	DRSC07531	6.16e5	4.02e5	5.94e5	5.18e5	inactive
27	RhoGEF2 (GeneID 36915)	DRSC29373	4.46e5	3.19e5	1.28e6	1.28e6	inactive
28	mthl1 (GeneID 32637)	DRSC19905	2.79e5	3.13e5	3.01e6	3.07e6	inactive
29	CG15747 (GeneID 32288)	DRSC19713	48192	46257	5.00e5	4.80e5	inactive
30	CG15747 (GeneID 32288)	DRSC28586	7.26e5	6.34e5	1.83e6	1.05e6	inactive
31	tamo (GeneID 37864)	DRSC04446	2.47e5	2.39e5	8.57e5	8.26e5	inactive
32	tamo (GeneID 37864)	DRSC24895	3.07e5	2.61e5	9.25e5	5.86e5	inactive
33	sun (GeneID 44046)	DRSC20140	4.25e5	4.01e5	4.02e6	2.84e6	inactive
34	sun (GeneID 44046)	DRSC26284	2.63e5	2.63e5	7.70e5	6.18e5	inactive
35	CG5860 (GeneID 42095)	DRSC15896	1.47e5	88640	1.41e6	1.07e6	inactive

Quoted from the entries so far, 3 entries:
no.	Target gene	amplicon	firefly reporter light, replicate 1	firefly reporter light, replicate 2	Renilla control light, replicate 1	Renilla control light, replicate 2	call
15	CG17292 (GeneID 34152)	DRSC27746	1.97e5	1.81e5	6.01e5	8.99e5	inactive
16	CG12111 (GeneID 31796)	DRSC17808	2.83e5	3.25e5	3.53e6	3.12e6	inactive
17	CG12111 (GeneID 31796)	DRSC26511	3.59e5	1.78e5	5.51e5	3.33e5	inactive

Further entries:
no.	Target gene	amplicon	firefly reporter light, replicate 1	firefly reporter light, replicate 2	Renilla control light, replicate 1	Renilla control light, replicate 2	call
36	CG34269 (GeneID 5740713)	DRSC38855	1.13e6	1.02e6	1.86e6	1.81e6	inactive
37	klar (GeneID 38067)	DRSC08718	8.59e5	6.35e5	1.20e6	8.57e5	inactive
38	klar (GeneID 38067)	DRSC22393	4.96e5	8.04e5	9.38e5	1.63e6	inactive
39	ix (GeneID 45881)	DRSC06325	61343	60891	8.47e5	8.72e5	active
40	ix (GeneID 45881)	DRSC25236	6.45e5	3.86e5	6.26e5	6.01e5	inactive
41	CG16799 (GeneID 37340)	DRSC06626	1.53e5	1.81e5	3.31e6	3.55e6	inactive
42	CG16799 (GeneID 37340)	DRSC21553	1.26e6	1.07e6	2.57e6	1.88e6	inactive
43	NijB (GeneID 40057)	DRSC09850	5.14e5	5.58e5	3.62e6	5.10e6	inactive
44	CG7330 (GeneID 40007)	DRSC10813	2.92e5	2.84e5	2.35e6	2.17e6	inactive
45	CG7330 (GeneID 40007)	DRSC10814	2.45e5	1.55e5	2.58e6	1.67e6	inactive
46	CG11345 (GeneID 38548)	DRSC08176	2.61e5	2.20e5	2.57e6	1.80e6	inactive
47	CG11345 (GeneID 38548)	DRSC28509	3.58e5	7.90e5	4.46e5	9.39e5	inactive
48	Pitslre (GeneID 40292)	DRSC11874	43883	64286	4.32e5	4.92e5	inactive
49	Pitslre (GeneID 40292)	DRSC23346	1.87e5	2.10e5	8.58e5	1.11e6	active
50	Pitslre (GeneID 40292)	DRSC36715					inactive
51	Pitslre (GeneID 40292)	DRSC36716					inactive
52	beat-IIIb (GeneID 35031)	DRSC02435	2.20e5	2.35e5	2.18e6	2.67e6	inactive
53	CG3999 (GeneID 41253)	DRSC15534	1.56e5	1.43e5	2.08e6	2.22e6	inactive
54	CG3999 (GeneID 41253)	DRSC29444	4.86e5	3.18e5	1.07e6	1.07e6	inactive
55	Send2 (GeneID 34836)	DRSC01906	2.27e5	2.59e5	2.57e6	2.42e6	inactive
56	CG4270 (GeneID 33408)	DRSC00648	1.07e5	68082	7.88e5	7.89e5	inactive
57	TrpA1 (GeneID 39015)	DRSC10544	1.05e5	1.56e5	1.31e6	1.63e6	inactive
58	CG43373 (GeneID 39835)	DRSC09869	2.01e5	1.66e5	1.35e6	1.32e6	inactive
59	CG43373 (GeneID 39835)	DRSC09885	2.13e5	1.70e5	1.90e6	1.71e6	inactive
60	CG43373 (GeneID 39835)	DRSC26831	7.35e5	5.10e5	1.14e6	4.20e5	inactive
